Binding data for five substances are collected here from PMC8789826.

By UniProt entry, the sequences of proteins in these tests, tags left out. Where a name states a change or a piece, a line headed by the entry shows the natural chain unless it says otherwise. Residues count along the entry.
UniProt Q96RT7: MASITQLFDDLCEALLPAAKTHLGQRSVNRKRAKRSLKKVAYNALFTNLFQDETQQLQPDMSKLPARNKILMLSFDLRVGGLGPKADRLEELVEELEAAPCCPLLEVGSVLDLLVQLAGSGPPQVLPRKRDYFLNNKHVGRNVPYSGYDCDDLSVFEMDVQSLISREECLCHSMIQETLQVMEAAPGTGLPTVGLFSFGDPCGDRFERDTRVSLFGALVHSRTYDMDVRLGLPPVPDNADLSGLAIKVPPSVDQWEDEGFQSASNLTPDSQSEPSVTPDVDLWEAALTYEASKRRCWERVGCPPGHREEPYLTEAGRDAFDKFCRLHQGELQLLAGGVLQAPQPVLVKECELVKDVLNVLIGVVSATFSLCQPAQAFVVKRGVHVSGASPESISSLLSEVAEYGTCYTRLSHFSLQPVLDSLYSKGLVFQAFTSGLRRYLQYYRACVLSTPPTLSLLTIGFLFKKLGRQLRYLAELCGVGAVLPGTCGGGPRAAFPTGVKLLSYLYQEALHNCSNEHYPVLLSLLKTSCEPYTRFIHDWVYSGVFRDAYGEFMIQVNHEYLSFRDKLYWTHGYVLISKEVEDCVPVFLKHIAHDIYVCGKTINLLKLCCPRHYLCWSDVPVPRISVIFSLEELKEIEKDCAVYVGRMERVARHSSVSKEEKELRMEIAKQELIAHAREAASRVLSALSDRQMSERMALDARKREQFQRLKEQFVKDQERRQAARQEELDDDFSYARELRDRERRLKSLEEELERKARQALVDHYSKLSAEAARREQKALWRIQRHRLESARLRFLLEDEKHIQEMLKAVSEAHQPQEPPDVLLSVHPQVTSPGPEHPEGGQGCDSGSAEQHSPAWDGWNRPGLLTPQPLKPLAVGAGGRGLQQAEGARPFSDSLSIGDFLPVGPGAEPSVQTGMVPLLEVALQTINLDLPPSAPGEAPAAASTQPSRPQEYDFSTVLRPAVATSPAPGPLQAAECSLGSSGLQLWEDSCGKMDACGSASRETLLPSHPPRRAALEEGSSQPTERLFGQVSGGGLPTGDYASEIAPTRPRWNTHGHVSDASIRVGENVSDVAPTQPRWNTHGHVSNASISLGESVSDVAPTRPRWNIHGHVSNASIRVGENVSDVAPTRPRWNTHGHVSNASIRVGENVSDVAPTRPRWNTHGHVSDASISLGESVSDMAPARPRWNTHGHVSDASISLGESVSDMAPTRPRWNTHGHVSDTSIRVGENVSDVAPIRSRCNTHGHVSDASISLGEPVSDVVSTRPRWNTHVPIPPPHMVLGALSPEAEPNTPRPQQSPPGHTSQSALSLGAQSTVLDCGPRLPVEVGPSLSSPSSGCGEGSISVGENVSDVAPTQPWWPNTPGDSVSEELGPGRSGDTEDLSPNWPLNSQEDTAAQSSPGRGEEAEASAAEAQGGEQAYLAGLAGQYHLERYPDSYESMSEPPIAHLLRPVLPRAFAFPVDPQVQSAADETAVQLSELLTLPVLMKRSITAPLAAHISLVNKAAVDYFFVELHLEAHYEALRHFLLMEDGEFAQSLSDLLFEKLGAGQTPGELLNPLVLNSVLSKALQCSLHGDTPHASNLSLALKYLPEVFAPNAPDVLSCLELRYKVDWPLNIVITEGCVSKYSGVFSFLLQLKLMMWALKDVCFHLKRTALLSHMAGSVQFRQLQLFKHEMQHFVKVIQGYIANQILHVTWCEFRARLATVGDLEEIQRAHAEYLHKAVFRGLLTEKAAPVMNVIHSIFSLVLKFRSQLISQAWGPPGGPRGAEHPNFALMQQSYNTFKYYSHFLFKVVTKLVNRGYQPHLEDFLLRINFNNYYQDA
ΔN56-GCP6: residues 57-1819 of Q96RT7
UniProt Q9UGJ1: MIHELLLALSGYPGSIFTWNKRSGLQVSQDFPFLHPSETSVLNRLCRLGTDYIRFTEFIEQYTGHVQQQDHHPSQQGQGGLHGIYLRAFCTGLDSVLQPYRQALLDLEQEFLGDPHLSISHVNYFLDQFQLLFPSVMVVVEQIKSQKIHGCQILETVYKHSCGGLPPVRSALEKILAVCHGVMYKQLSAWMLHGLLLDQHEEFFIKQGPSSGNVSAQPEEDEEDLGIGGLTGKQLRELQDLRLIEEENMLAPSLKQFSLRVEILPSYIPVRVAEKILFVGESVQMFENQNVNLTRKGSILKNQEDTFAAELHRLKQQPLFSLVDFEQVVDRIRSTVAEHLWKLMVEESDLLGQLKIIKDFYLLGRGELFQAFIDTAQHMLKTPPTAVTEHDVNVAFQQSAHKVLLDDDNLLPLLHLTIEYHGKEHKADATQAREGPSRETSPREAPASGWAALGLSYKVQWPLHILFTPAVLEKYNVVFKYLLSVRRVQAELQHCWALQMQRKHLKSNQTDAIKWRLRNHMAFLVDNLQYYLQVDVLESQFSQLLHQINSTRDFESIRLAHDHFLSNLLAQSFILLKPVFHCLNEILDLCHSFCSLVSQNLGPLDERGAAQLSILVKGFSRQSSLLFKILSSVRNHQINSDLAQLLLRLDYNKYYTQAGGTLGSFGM
UniProt Q96RT8: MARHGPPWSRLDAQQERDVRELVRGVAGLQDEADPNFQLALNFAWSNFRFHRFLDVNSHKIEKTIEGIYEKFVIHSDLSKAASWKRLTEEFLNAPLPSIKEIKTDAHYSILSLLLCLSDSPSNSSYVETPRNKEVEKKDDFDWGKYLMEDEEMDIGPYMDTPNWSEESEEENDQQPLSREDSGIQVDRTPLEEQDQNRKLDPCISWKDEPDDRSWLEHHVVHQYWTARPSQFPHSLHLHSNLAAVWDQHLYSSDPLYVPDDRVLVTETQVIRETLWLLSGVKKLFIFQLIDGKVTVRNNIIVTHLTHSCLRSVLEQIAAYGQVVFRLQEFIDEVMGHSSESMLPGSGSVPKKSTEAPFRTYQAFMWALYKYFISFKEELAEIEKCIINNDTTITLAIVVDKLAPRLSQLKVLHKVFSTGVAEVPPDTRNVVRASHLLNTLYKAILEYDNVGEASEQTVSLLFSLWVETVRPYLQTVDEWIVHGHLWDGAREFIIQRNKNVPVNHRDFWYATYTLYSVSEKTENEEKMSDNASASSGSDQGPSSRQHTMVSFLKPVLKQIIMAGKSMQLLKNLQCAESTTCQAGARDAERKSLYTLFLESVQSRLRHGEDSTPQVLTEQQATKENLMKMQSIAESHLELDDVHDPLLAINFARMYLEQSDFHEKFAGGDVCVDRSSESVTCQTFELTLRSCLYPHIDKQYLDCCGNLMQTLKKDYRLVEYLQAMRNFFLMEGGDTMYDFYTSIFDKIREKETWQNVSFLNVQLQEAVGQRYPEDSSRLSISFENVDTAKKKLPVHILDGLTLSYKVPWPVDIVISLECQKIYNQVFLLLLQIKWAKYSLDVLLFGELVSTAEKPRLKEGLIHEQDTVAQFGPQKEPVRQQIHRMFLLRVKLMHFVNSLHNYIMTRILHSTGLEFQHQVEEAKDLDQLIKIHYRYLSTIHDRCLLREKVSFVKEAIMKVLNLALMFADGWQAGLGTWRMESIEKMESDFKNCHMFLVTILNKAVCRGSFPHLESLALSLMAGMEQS
UniProt Q96CW5: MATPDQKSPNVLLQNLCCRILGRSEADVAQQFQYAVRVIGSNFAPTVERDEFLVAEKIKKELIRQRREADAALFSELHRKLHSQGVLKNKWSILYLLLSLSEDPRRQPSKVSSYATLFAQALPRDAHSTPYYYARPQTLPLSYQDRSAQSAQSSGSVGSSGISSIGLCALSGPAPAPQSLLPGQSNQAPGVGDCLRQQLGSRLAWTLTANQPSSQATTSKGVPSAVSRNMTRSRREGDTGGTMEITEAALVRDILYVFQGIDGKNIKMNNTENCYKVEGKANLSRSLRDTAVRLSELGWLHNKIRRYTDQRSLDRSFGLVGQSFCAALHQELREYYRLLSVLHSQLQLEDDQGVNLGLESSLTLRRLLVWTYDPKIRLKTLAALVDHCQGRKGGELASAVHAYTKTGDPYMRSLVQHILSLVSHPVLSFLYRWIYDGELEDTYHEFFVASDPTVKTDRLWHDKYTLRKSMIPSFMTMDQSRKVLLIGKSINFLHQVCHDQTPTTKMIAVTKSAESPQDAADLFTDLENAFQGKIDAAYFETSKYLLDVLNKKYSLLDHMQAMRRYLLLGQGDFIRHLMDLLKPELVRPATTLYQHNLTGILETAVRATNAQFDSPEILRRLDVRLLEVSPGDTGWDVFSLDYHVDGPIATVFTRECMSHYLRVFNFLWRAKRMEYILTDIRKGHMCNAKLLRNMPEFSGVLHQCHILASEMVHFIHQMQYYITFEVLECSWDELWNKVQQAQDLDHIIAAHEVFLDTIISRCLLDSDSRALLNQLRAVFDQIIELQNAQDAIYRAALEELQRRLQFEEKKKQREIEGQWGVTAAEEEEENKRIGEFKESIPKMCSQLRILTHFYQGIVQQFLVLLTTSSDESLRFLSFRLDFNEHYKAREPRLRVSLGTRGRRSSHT
UniProt Q08AG7: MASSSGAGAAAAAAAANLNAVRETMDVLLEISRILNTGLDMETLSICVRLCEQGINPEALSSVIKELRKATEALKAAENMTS

Results are given in words; binding and its absence hold for the method and conditions named. For some of these results: In cells and extracts the contact can be indirect. Some binding calls cover weakened binding; strength is not graded here.

Assay [1] concerns the target GCP6 (TUBGCP6), full-length (human) (UniProt Q96RT7). The assay is described as follows: cryo-EM structure; recombinant human wild-type γ-TuRC and its assembly intermediates (6 to 14 spokes), purified from Sf21 cells via 2xFLAG-GCP5; single-particle analysis, 5.3-16.1 Å; published atomic models fitted as rigid bodies and flexibly fitted; both purified.
Another assay addresses GCP4 (TUBGCP4) (human) (UniProt Q9UGJ1). The description is as above.
Assay [2] concerns the target 2xFLAG-GCP5 (2xFLAG-TUBGCP5) (human) (UniProt Q96RT8). As to the kind of experiment: co-IP; γ-TuRC^∆GCP2/3 from Sf21 lysate on Anti-FLAG M2 Affinity Gel via 2xFLAG-GCP5, eluted with 3xFLAG peptide; Coomassie-stained SDS-PAGE and immunoblot. Background: A western blot detects proteins with antibodies after separation by electrophoresis.
For assay [3] the target is unchanged. As to the kind of experiment: cryo-EM structure; recombinant human γ-TuRC^∆GCP2/3 (GCP2 and GCP3 omitted from the expression system), 4-spoke assembly, 7.8 Å global resolution; both purified.
Assay [4] concerns the target GCP6 (TUBGCP6), full-length (human) (UniProt Q96RT7). The assay is described as above.
The target in the next assay is ΔN56-GCP6 (human) (UniProt Q96RT7). The assay is described as follows: cryo-EM structure; recombinant human γ-TuRC^ΔN56-GCP6 (full-length GCP6 replaced by ΔN56-GCP6; ACTB co-expressed), fully assembled 14-spoke complex, 7.1 Å global resolution; both purified.
Assay [5] addresses 2xFLAG-GCP5 (2xFLAG-TUBGCP5) (human) (UniProt Q96RT8). The assay is described as follows: cryo-EM structure; recombinant human wild-type γ-TuRC and its assembly intermediates (6 to 14 spokes), purified from Sf21 cells via 2xFLAG-GCP5; single-particle analysis, 5.3-16.1 Å; published atomic models fitted as rigid bodies and flexibly fitted; both purified.

In the case of “2xFLAG-GCP5 (2xFLAG-TUBGCP5) (from UniProt Q96RT8 1-1024)”, the binding result in assay [1] is given as “binds”.
Regarding “GCP3 (TUBGCP3) (from UniProt Q96CW5 1-907)”, in the assay with GCP4 (TUBGCP4) (human), the binding entry is on record as “binds”.
“GCP4 (TUBGCP4) (from UniProt Q9UGJ1 1-667)”: the binding entry (in assay [2]; in assay [3]; in assay [4]; with ΔN56-GCP6 (human); in assay [5]; in assay [1]) was “binds” each time.
Consider “GCP6 (TUBGCP6), full-length (from UniProt Q96RT7 1-1819)”, for which the binding entry in assay [2] is “binds”.
Consider “MZT1-GCP5 module (in the recombinant γ-TuRC) (from UniProt Q08AG7 6-82; Q96RT8 1-1024) (complex)”, for which, in the assay with GCP4 (TUBGCP4) (human), the binding result is given as “binds”.
